Results on 21 molecules are retold here after the supplement of paper PMC8166895.

The structures appear in SMILES notation. Where a name gives a salt, the structure may show the parent alone. The list shows a part of the results. Most entries show no effect beyond the scatter of the controls.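 Melting temperature was read by differential scanning fluorimetry in a single-replicate pilot screen of a library of approved drugs and clinical or known-target compounds. Compounds raising the melting point by at least 2 °C were the top stabilizing hits, and negative shifts mean destabilization.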

In this test the test system is SARS-CoV-2 main protease (Mpro, nsp5). Description: thermal shift ΔTm of Mpro relative to plate average Tm; higher = stronger thermal stabilization of Mpro (binding). To be noted: 10 µM; protein concentration 1 µM.
As for `NCc1c[nH]c(=S)n1[C@@H]1CCc2c(F)cc(F)cc2C1` [(R)-Nepicastat HCl], the “thermal shift ΔTm of Mpro” value is -0.323 °C.
As to `COc1cc(OC)cc(C(=O)Nc2ccc(Cl)c(-c3nc4ccc(N(C)C)cc4[nH]3)c2)c1` [HhAntag], the “thermal shift ΔTm of Mpro” value came to 0.106 °C.
In the case of `CN(C)CC[C@@H](c1ccc(Cl)cc1)c1ccccn1` [Dexchlorpheniramine Maleate] it was -0.141 °C.
Turning to `NCCC(=O)[N-][C@@H](Cc1c[nH]cn1)C(=O)[O-].[Zn+2]` [Polaprezinc], the “thermal shift ΔTm of Mpro” value was determined as 0.283 °C.
Regarding `CN(CCOc1ccc(CC2SC(=O)NC2=O)cc1)c1ccccn1` (stereo unspecified) [Rosiglitazone maleate], the “thermal shift ΔTm of Mpro” value turned out to be 0.0712 °C.
On to `CN(CCOc1ccc(CC2SC(=O)NC2=O)cc1)c1ccccn1` (stereo unspecified) [Rosiglitazone], for which the “thermal shift ΔTm of Mpro” value is 0.0927 °C.
In the case of `CN(CCOc1ccc(CC2SC(=O)NC2=O)cc1)c1ccccn1` (stereo unspecified) [Rosiglitazone HCl], the “thermal shift ΔTm of Mpro” value came out at 0.0777 °C.
As to `C=C[C@@H]1C[C@]1(NC(=O)[C@@H]1C[C@@H](Oc2ncc(OC)c3ccc(Cl)cc23)CN1C(=O)[C@@H](NC(=O)OC(C)(C)C)C(C)(C)C)C(=O)NS(=O)(=O)C1CC1` [Asunaprevir], the “thermal shift ΔTm of Mpro” value is -0.112 °C.
Take `C[C@H]1C[C@@H]2[C@H]([C@@H](O)C[C@@]3(C)[C@H]2CC[C@]3(O)C(=O)COC(=O)CCC(=O)O)[C@@]2(C)C=CC(=O)C=C12` [Methylprodnisolone Sodium Succinate]: the “thermal shift ΔTm of Mpro” value was 0.277 °C.
In the case of `CCOC(=O)c1c(C)n(C)c2ccc(O)cc12` [Mecarbinate], the “thermal shift ΔTm of Mpro” value is -0.0703 °C.
As for `Nc1cc(-c2ccncc2)c[nH]c1=O` [Amrinone], the “thermal shift ΔTm of Mpro” value stood at 0.0917 °C.
With `COc1ccc(C[C@@H]2c3cc(OC)c(OC)cc3CC[N@+]2(C)CCC(=O)OCCCCCOC(=O)CC[N@@+]2(C)CCc3cc(OC)c(OC)cc3[C@H]2Cc2ccc(OC)c(OC)c2)cc1OC` [Cisatracurium Besylate] the figure was 0.133 °C; with `COP(=S)(OC)Oc1ccc(Sc2ccc(OP(=S)(OC)OC)cc2)cc1` [Temephos], 0.242 °C; with `N#Cc1ccc(Oc2ccc3c(c2)COB3O)cc1` [Crisaborole], 0.0783 °C.
Take `CC(N)C12CC3CC(CC(C3)C1)C2` (stereo unspecified) [Rimantadine hydrochloride]: the “thermal shift ΔTm of Mpro” value came out at 0.0163 °C.
On to `CC(N)C12CC3CC(CC(C3)C1)C2` (stereo unspecified) [Rimantadine], for which the “thermal shift ΔTm of Mpro” value was 0.155 °C.
Regarding `CS(=O)(=O)Nc1ccc([N+](=O)[O-])cc1OC1CCCCC1`, the “thermal shift ΔTm of Mpro” value was -0.0274 °C.
In the case of `COC(=O)C(N)CS` [L-Cysteine methyl ester hydrochloride(Acdrile)], the “thermal shift ΔTm of Mpro” value was determined as 0.126 °C.
In the case of `Cc1ccc(NS(=O)(=O)c2cccc(C#N)c2)c2[nH]cc(C#N)c12` it was 0.233 °C.
Turning to `O=C(O)CC1CC(c2ccccc2)=NO1` (stereo unspecified), the “thermal shift ΔTm of Mpro” value worked out at 0.0301 °C.
Take `c1ccc(/N=N/c2ccccc2)cc1` [Azobenzene]: the “thermal shift ΔTm of Mpro” value was 0.0674 °C.
